# Experimental data as given in PubChem BioAssay AID1439 (NMMLSC, 2008).
# Protein sequences, listed by entry. Tags and fused reporters are not part of them.
# UniProt P09471, whole entry, looked up: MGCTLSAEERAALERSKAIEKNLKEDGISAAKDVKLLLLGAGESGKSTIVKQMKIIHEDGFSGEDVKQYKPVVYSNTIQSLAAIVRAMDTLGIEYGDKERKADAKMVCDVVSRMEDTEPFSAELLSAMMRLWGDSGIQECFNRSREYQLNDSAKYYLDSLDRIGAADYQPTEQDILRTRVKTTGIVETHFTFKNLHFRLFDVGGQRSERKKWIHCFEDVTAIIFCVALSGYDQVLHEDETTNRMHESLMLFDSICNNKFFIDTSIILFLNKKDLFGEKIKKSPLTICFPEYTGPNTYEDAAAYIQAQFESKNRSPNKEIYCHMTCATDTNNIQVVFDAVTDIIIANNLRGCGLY
# Among all 220,000 compounds or so, about 770 (0.35%) were called active. This list was built around the results that the source calls inconclusive (neither active nor inactive); the mix of calls is not that of the screen. Cut-off read from the data, not from the text of the source: active = binding response below about 49% or above about 150%; inconclusive = no clear call, values can overlap the other calls; inactive = in between.
# Target: Guanine nucleotide-binding protein G(o) subunit alpha (Homo sapiens) (UniProt P09471)
# Test: RGS7-Galphao binding modulators, primary screen, biochemical, multiplexed bead flow cytometry (AID 1439);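 note: fluorescent Galphao held in activated GDP-AlF4 state binding bead-coupled RGS7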
# Details: at 10 µM, actives lie on both sides
row,Compound,binding response (% of control)
1,Oc1ccc(N=Cc2ccc(-c3cccs3)s2)cc1,inactive: 106%
2,CC(C)Cc1nc2ccccc2[nH]1,inconclusive: 93.9%
3,CN(C)CCCn1c(SCCN2C(=O)c3ccccc3C2=O)nc2ccccc2c1=O,inconclusive: 94.6%
4,CCCCN1C(=S)SC(C)(C)C1/[N+]([O-])=C/c1ccc(S(=O)(=O)NC)cc1 (stereo unspecified),inconclusive: 89.6%
5,COC(=O)c1ccc(C23CC4(C2)[C@H](CN(CC2CCCCC2)[C@@H]4c2ccccc2)C3c2ccc(Cl)nc2)cc1 (stereo partly specified),inconclusive: 90.4%
6,COC(=O)Cc1ccc(NC(=S)NNC(=O)C2CC2)cc1,inconclusive: 92.5%
7,Cc1ccc(C(=O)Nc2cccc(-c3nc4ncccc4o3)c2)cc1,inconclusive: 154%
8,Cn1c(N)c(N=O)c(=O)n(C)c1=O,inconclusive: 136%
9,COCCn1cnc2c1c(=O)n(CC(=O)OCC#N)c(=O)n2Cc1ccccc1,inactive: 111%
10,C#CC[N+](C)(C)CCCCCCCCC,inactive: 105%
11,CCOC(=O)c1ccccc1-c1csc(N)n1,inconclusive: 94.8%
12,Cc1nc2c(c(=O)c3ccccc3n2C)c(=O)n1-c1ccc(F)cc1,inconclusive: 61.5%
13,O=C(Nc1ccc(Cl)c(Cl)c1)c1ccc(Cl)c(Cl)c1,inconclusive: 216%
14,COc1ccc(/C=N/NC(=O)CCn2nnc3ccccc32)cc1,inconclusive: 114%
15,CCC1CN(C(=O)Nc2ccc(C)cc2)c2cc(C)ccc2O1 (stereo unspecified),inactive: 99.8%
16,CC1(CCc2ccccc2)NC(=O)N(CC(=O)O)C1=O (stereo unspecified),inconclusive: 109%
17,C=CCNC(=O)NC(=O)COC(=O)CNS(=O)(=O)c1ccc(F)c(F)c1F,inconclusive: 74%
18,CN(CC(=O)Nc1ccc([N+](=O)[O-])cc1Br)Cc1c(F)cccc1Cl,inconclusive: 104%
19,Cc1nc(C2COc3ccccc3O2)sc1C(=O)O (stereo unspecified),inconclusive: 149%
20,Cc1oc(S(=O)(=O)N2CCCCC2)cc1NC(=O)Nc1ccc(F)cc1,inconclusive: 122%
21,COc1ccc(C(C)=O)cc1COc1ccc(F)cc1,inconclusive: 111%
22,Cc1ccccc1-c1n[nH]c(=S)n1/N=C/C=C/c1ccco1,inconclusive: 83.2%
23,CC1(C)CC(=O)C=C(NNC(=O)c2ccccc2)C1,active: 9.9%

# 3 compounds picked at random from the list so far, as already listed:
row,Compound,binding response (% of control)
1,Oc1ccc(N=Cc2ccc(-c3cccs3)s2)cc1,inactive: 106%
8,Cn1c(N)c(N=O)c(=O)n(C)c1=O,inconclusive: 136%
2,CC(C)Cc1nc2ccccc2[nH]1,inconclusive: 93.9%

# Following part

row,Compound,binding response (% of control)
1,Cc1ccc(C(=O)N/C(=C/c2ccccc2)C(=O)NCc2ccncc2)cc1,inconclusive: 96.2%
2,CCOc1cc(S(=O)(=O)n2ccc(C)n2)ccc1Br,inconclusive: 95.8%
3,Cc1cc(C(=O)COC(=O)C(C)NC(N)=O)c(C)n1Cc1ccco1 (stereo unspecified),inconclusive: 94.3%
4,COc1ccc2c(Cl)c(C(=O)OCC(=O)c3ccc4c(c3)NC(=O)CO4)sc2c1Cl,inconclusive: 101%
5,CN(C)C(=O)CSC1c2ccccc2C(=O)N1c1ccccc1 (stereo unspecified),active: 14.8%
6,N#Cc1ccc(Oc2ccc(C(F)(F)F)cc2NC(=O)c2ccc(F)cc2)cc1,inconclusive: 86%
7,CCn1cc(C(=O)N2CCN(c3cccc(C)c3C)CC2)c(=O)c2ccc(C)nc21,inconclusive: 105%
8,COc1ccc(CNC(=O)COc2ccc(F)cc2)cc1,inconclusive: 98.3%
9,CN(C(=O)CSc1nc2ccc([N+](=O)[O-])cc2s1)C1CCS(=O)(=O)C1 (stereo unspecified),inconclusive: 90.8%
10,NC(=O)c1cccc(-c2cc(Nc3ccc(OC(F)(F)F)cc3)ncn2)c1,inconclusive: 138%
11,Cn1c(N)c(C(=O)CSc2nnc(-c3ccccc3F)n2N)c(=O)n(C)c1=O,inconclusive: 128%
12,CC(C(=O)O)n1c(-c2ccn[nH]2)n[nH]c1=S (stereo unspecified),inconclusive: 5.4%
13,COc1ccc(NC(=S)Nc2cc(C)[nH]n2)cc1Cl,inconclusive: 95.6%
14,CC(=O)c1sc(-c2ccc(Cl)cc2)cc1N,inconclusive: 156%
15,Cn1c(=O)c(C=Nc2ccccc2)c(O)c2ccccc21,inconclusive: 128%
16,Cc1nnc(NC2=NCCC2)o1,inactive: 129%
17,O=C(CN1CCC(NC(=O)c2ccccc2Cl)CC1)NCc1ccco1,inactive: 96.9%
18,O=C(c1ccc(F)cc1)N1CCN2C(=O)c3ccccc3C12c1ccc(Cl)cc1 (stereo unspecified),inactive: 103%
19,CN(Cc1ccccc1)S(=O)(=O)c1ccc(NS(=O)(=O)Cc2ccccc2)cc1,inactive: 107%
20,CCCc1cc2c(=O)c(-c3nc4ccccc4s3)c(COCC(=O)O)oc2cc1O,inactive: 108%
21,COc1cc(CN2CCC(C(=O)N3CCN(c4ccccc4F)CC3)CC2)cc(OC)c1OC,inactive: 98.6%
22,COc1cccc(C(=O)NCCN2C(=O)S/C(=C/c3cccs3)C2=O)c1OC,inconclusive: 107%
23,CCCC(C)NC(=O)COC(=O)c1cccc(NS(C)(=O)=O)c1 (stereo unspecified),inconclusive: 93.8%
